# Results reported in PubChem BioAssay (NCATS).
# Values joined by “and” are separate entries in the source; they are usually repeats but may differ in a detail not shown here. Identical values can stand only once. This is one part of the list. The main result of the screen is listed elsewhere. These columns were measured beside it and carry no call. Compounds called inactive in the main read-out are mostly missing here. The note in brackets gives the kind of curve behind each potency; many fits are weak.
# Experiment: qHTS Assay for Inhibitors of PDE-IV (AID 607)
# Settings: HEK293 ACTOne CNG channel cells, membrane potential fluorescence; measured here: parental cell counter-screen
# Procedure, shortened: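 Live HEK293 cells with a modified cyclic nucleotide-gated (CNG) channel report intracellular cAMP via membrane-potential dye fluorescence (ex 535/em 590 nm). Endogenous PDE-IV was targeted. Compounds were tested at up to 22.9 uM final; RO 20-1724 100 uM served as control.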
row,SMILES,AC50
1,O=C(/C=C\C=C/c1ccc2c(c1)OCO2)N1CCCCC1,"7.94 µM [rising, partial curve]"
2,CC(C)[C@@H](CC(=O)N[C@@H]1CCCC[C@H]1C(=O)N[C@H](CC(=O)N[C@@H](CCC(=O)O)CC(=O)O)Cc1c[nH]c2ccccc12)NC(=O)C[C@H](Cc1ccccc1)NC(=O)[C@@H]1CCCC[C@H]1N,"3.98 µM [rising, partial curve, poor fit]"
3,C[C@@H](C(=O)Nc1ccc2ccccc2c1)[C@H]1C[C@]1(C)[C@H](NC(=O)c1ccccc1)c1ccccc1,"0.631 µM [rising, single point]"
4,CCCC/C=C/C(NC(=O)c1ccccc1)c1ccccc1 (stereo unspecified),"15.8 µM [rising, single point]"
5,C=C[C@@]1(C)CC(=O)[C@@]2(O)[C@@]3(C)[C@@H](O)CCC(C)(C)[C@@H]3[C@H](OC(=O)CCN(C)C)[C@H](OC(C)=O)[C@@]2(C)O1,"0.0794 µM [rising, full curve]"
6,CC(C)(C)c1cc(Br)c(O)c(CN(Cc2cc(C(C)(C)C)cc(Br)c2O)C2CCCCC2)c1,"2.51 µM [rising, single point]"
7,COC(=O)[C@@H]1C[C@H]1[C@@H](NS(=O)(=O)c1ccc(-c2ccccc2)cc1)c1ccccc1,"0.631 µM [rising, single point]"
8,O=C(c1ccncc1)N1CCC2(CC1)CCN(c1ccncc1)CC2,"0.00316 µM [falling, full curve, poor fit]"
9,COC(=O)[C@@]1(Cc2ccc(F)cc2)[C@H]2c3cc(C(=O)N4CCCC4)n(Cc4ccc(OC(F)(F)F)cc4)c3C[C@H]2CN1C(=O)c1ccccc1,"1.58 µM [rising, full curve]"
10,C[C@@H](C(=O)O)c1ccc(C(=O)c2ccccc2)s1,"1.26 µM [rising, partial curve]"
11,C[C@@H](C(=O)Nc1ccc2ccccc2c1)[C@@H]1C[C@@]1(C)[C@@H](NC(=O)c1cnccn1)c1ccccc1,"5.01 µM [rising, partial curve]"
12,C[C@@H](C(=O)O)c1ccc(-c2ccccc2)c(F)c1,"3.98 µM [rising, partial curve] and 3.98 µM [rising, full curve]"
13,CCC/C=C(\CCC)C(NC(=O)C(C)(C)C)c1ccc(C(=O)OC)cc1 (stereo unspecified),"10 µM [rising, partial curve]"
14,CCn1cc(C(=O)O)c(=O)c2cnc(N3CCNCC3)nc21,"0.00126 µM [rising, full curve, poor fit]"
15,CCC/C=C(\CCC)C(NS(=O)(=O)CC12CCC(CC1=O)C2(C)C)c1ccc(C(=O)OC)cc1 (stereo unspecified),"2 µM [rising, partial curve]"
16,O[C@@H](c1ccccc1)C1CCN(CCc2ccccc2)CC1,"15.8 µM [rising, partial curve]"
17,CCCC[C@@H]1C[C@H]1C(NC(=O)c1ccco1)c1ccc(Cl)cc1 (stereo partly specified),"12.6 µM [rising, single point]"
18,COc1ccccc1CNc1nc(-c2ccccc2CN(C)C)nc2ccccc12,"10 µM [rising, partial curve]"
19,O=C(c1ccncc1)N1CCC2(CC1)CN(c1ccccn1)C2,"15.8 µM [rising, single point]"
20,CCC/C=C(\CCC)C(NC(=O)c1ccccc1)c1ccc(C(=O)OC)cc1 (stereo unspecified),"6.31 µM [rising, partial curve]"
21,Cc1ccccc1N=C(N)Nc1ccccc1C,"15.8 µM [rising, partial curve]"
22,CCCC[C@@H]1C[C@H]1C(NC(=O)c1cccnc1)c1ccc(Cl)cc1 (stereo partly specified),"15.8 µM [rising, single point]"
23,CC(C)c1cccc2c([Si](C)(C)C)c3c(nc12)-c1cccc(=O)n1C3,"15.8 µM [rising, single point]"
24,COc1ccccc1-c1nccc(NCc2ccccc2)n1,"7.94 µM [rising, partial curve, poor fit]"
25,COC(=O)[C@@]1(Cc2ccccc2)[C@H]2c3cc(C(=O)N4CCCC4)n(Cc4cccc5ccccc45)c3C[C@H]2CN1C(=O)c1ccccc1,"1.58 µM [rising, partial curve]"
26,CNC(=O)[C@H](C)[C@H]1C[C@]1(C)[C@H](NC(=O)OCc1ccccc1)c1ccccc1,"12.6 µM [rising, single point]"
